# Experimental data taken from PubChem BioAssay AID1347423 (Functional Genomics Laboratory (NCATS/FGL), 2020).
# Among all 52,000 sequences or so, about 210 (0.4%) were called active.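 Rule for the calls: active = gene whose silencing raises cell survival under the drug, median off-target-corrected z-score across its silencing RNAs 2 or more; inactive = the rest.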 Some of the results follow.
# Assay: Resistance to Poly (ADP-Ribose) Polymerase inhibitor: Gene Identification via Genome-wide siRNA Screen
# Conditions: mouse BRCA2 R2336H ES cells, olaparib, CellTiter-Glo viability; active compounds read high
# In short: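 Genome-wide siRNA screen (3 siRNAs/gene, 20 nM) in mouse ES cells carrying hypomorphic BRCA2 R2336H; olaparib 500 nM added 48 h post-transfection, CellTiter-Glo viability 72 h later. Normalized to plate-median negative control; MAD z-scores, gene median, seed-adjusted.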
row,Sequence,z-score
1,CCGAGUAAUUGGAAGUGGUTT against Ldh1,inactive: 1.02
2,CCGCCUCUUUGAAGCCCAATT against 1110004D19Rik,inactive: -1.73
3,GGAAUCAAAAUCUUUGAUGTT against Dab1,inactive: 0.584
4,GGAUUUGGAAAUAUUAGAGTT against E330021D16Rik,inactive: 0.602
5,GGACUACAGUCAUUAUUCATT against 4930518F03Rik,inactive: 0.681
6,GGUCUGUUCUGUACUGAAGTT against Usmg4,inactive: -1.14
7,GGUUCAGAAGAGCUGAUGATT against Ezh2,inactive: 0.531
8,GCAAUCCAUACAAGCUGUATT against Olfr1134,inactive: -0.726
9,GGGAAUUAUGGGCUUACCGTT against 4931414P19Rik,inactive: -2.88
10,GGUCAAUCAAUCGUACGAATT against Trar1,inactive: -0.242
11,GCUGCGACAAUUCAAUAUCTT against Rdh8,inactive: -0.377
12,CCACUAAAAUCUUACUGGATT against Scn7a,inactive: 1.85
13,CCUGACAAAAGAACCUUAUTT against Grit,inactive: 0.24
14,GGCGAUUAUGGAAAAAUGUTT against Osbpl11,inactive: -0.782
15,GCAAGUCAGACUCCUAGUGTT against 4930563E19Rik,inactive: 2.35
16,GCUUAUUGUUCAACCCAACTT against Dpp3,inactive: 0.839
17,GGAAGGAUGCUUCCUUGGATT against Stmn3,inactive: 0.577
18,GAACAAUGCAGAGACAAUUTT against Olfr176,inactive: -0.342
19,GCCUCAUGUUGACAGUGUCTT against 2310045B01Rik,inactive: 1.88
20,CGAUGUCUGAGUUCAACACTT against Gclc,inactive: 0.206
21,GGGAAUACGUGUACUGAAGTT against Ttc17,inactive: -1.8
22,GCAGAACUUGACCACUGCCTT against Defb2,inactive: 0.39

row,Sequence,z-score
1,CGGGAAGCAUCACUAUUUCTT against 5830411E10Rik,inactive: -2.01
2,GUUGGUAAAGGUCCUUGCCTT against D17Wsu155e,inactive: -1.02
3,GGUAUUCGAAGCAUACAAUTT against Pdha2,inactive: -0.198
4,CCUCCUAUUUGCUUCAUUUTT against Pscdbp,inactive: -0.434
5,GGAGGAAGAGAACUUCGUGTT against Fstl3,inactive: 0.0275
6,GGAUCUAGAACAGAAAAUGTT against Stat3,inactive: 0.505
7,GGAAAUGGCCUCCAUGAGATT against Krt1-14,inactive: 0.261
8,CCUUACAUGUUGACUACCCTT against Rnase13,inactive: -0.327
9,GCAGUAUGGCUACCUACCUTT against Mmp14,inactive: -1.86
10,GGCCUUUUAUUAGUGAGGGTT against 4932435O22Rik,inactive: 0.016
11,GGUGGUUUUGUUUCUUUUUTT against 4921526G09Rik,inactive: 1.04
12,GGGUAAACACCCAUUUAGCTT against Lbx2h,inactive: 1.15
13,GGACACUUCCAAUGAGUCCTT against Chrm4,inactive: -0.178
14,GGAUCAGUAGCAUUAACAATT against Tcf7l2,inactive: -1.26
15,GCCAGGGUAUUAAUGCCUCTT against Ebi2,inactive: -0.606
16,CCGACAUGUGGACAAAUGATT against Tas2r117,inactive: -0.205
17,CCUCAAGAUAAACCGACAATT against Bard1,inactive: -1.47
18,GCGGGCUGAAGAAGAAUUGTT against Ppp1r12c,inactive: 0.25
19,CCCUUUCAUUGUGCAUUAATT against 3110052N05Rik,inactive: -2.21
20,GGAUGAGUACACCUUUGUGTT against Chdh,inactive: 1.95
21,CGAUAAAGGCCAAAUACUGTT against Ssb,inactive: -0.521
22,GGGUGAACUCGGACAUUGATT against 1700001L23Rik,inactive: -1.62

# Quoted at random: 5 entries already listed, in no set order.
row,Sequence,z-score
19,CCCUUUCAUUGUGCAUUAATT against 3110052N05Rik,inactive: -2.21
21,CGAUAAAGGCCAAAUACUGTT against Ssb,inactive: -0.521
18,GCGGGCUGAAGAAGAAUUGTT against Ppp1r12c,inactive: 0.25
20,GGAUGAGUACACCUUUGUGTT against Chdh,inactive: 1.95
4,CCUCCUAUUUGCUUCAUUUTT against Pscdbp,inactive: -0.434

# (list continues)

row,Sequence,z-score
1,GGAAACUUCAGACUAGUCATT against Eif2s3y,inactive: -0.802
2,GCUGAUCCGAUACAUCGACTT against Cuedc2,inactive: -1.36
3,GGCUUAAUGUUGCUUCAGATT against Aven,inactive: 0.96
4,GCGCAUACGAUAUGUGACCTT against H2-Ab1,inactive: 1.15
5,GGAACGAAUGUUCUUCGGUTT against Dst,inactive: 1.05
6,GGAGUCUCAGAACAGCACATT against C530005A01Rik,inactive: 1.14
7,GGCCACAGGAAGUCAGUUATT against Gsk3b,inactive: -2.3
8,CCUUGUAACUGAGGCCCGATT against Olfr120,inactive: -0.658
9,GGAGCUAUAAUUAACAAGATT against Adam6,inactive: -0.0669
10,GGCACAUGUCAGAAUAGGCTT against 1110001A05Rik,inactive: -0.121
11,GGGCAUCCUGCUAGGCUUUTT against Adcy8,inactive: -1.31
12,GGGAGAAUCGAACUAUAAATT against 1300006N24Rik,inactive: -0.0425
13,GCAGUCGAUGUCAAGGUUATT against Plekhf2,inactive: -1.19
14,GGAAACCAGUUGCUUAAGUTT against 4933404M02Rik,inactive: -0.0625
15,GGAAAAAGCUACUGAGUCCTT against Cx3cl1,inactive: 0.144
16,GGAACAGAAACUGAAGGAUTT against Cyln2,inactive: 0.128
17,GGUUCAUUCUCUGCAUUAATT against Rpp40,inactive: -1.47
18,GCGACCAGCUCUUUUAUACTT against Plod1,inactive: -0.132
19,GGGUGAGCAAGGUUGUAAUTT against Pdgfb,inactive: -0.491
20,GCCACGCAAUAAAGCAUCUTT against Sars1,inactive: -1.99
21,GGAGUCUCCUUAUAUUAAUTT against Alcam,inactive: -0.549
22,GGAAGAGAUCGAUGAGACUTT against Cyp3a41,inactive: -1.31
